According to patent US20230357430A1, “RNF167 AND CASTOR1 AS NOVEL MTOR TARGETS” (UNIVERSITY OF PITTSBURGH - OF THE COMMONWEALTH SYSTEM OF …, priority 2020, published 2023):
Results are given in words; binding and its absence hold for the method and conditions named. Binding seen in cells or lysates may run through a third protein. A result given as binding can be weak or reduced; the word gives no strength. Tags and fused reporters may be left off the sequences shown.

Assays:
endogenous AKT [1] = assay: co-immunoprecipitation and immunoblotting (FIGS. 8B, 8D)
endogenous AKT [2] = assay: co-immunoprecipitation and immunoblotting (FIGS. 8A-8F)

- binding (endogenous AKT [1]): binds
- binding (endogenous AKT [2]): binds
B1: human CASTOR1 wild type (Flag-CASTOR1 WT) (other, UniProt Q8WTX7 1-329, looked up)
chain: MELHILEHRVRVLSVARPGLWLYTHPLIKLLFLPRRSRCKFFSLTETPEDYTLMVDEEGFKELPPSEFLQVAEATWLVLNVSSHSGAAVQAAGVTKIARSVIAPLAEHHVSVLMLSTYQTDFILVREQDLSVVIHTLAQEFDIYREVGGEPVPVTRDDSSNGFPRTQHGPSPTVHPIQSPQNRFCVLTLDPETLPAIATTLIDVLFYSHSTPKEAASSSPEPSSITFFAFSLIEGYISIVMDAETQKKFPSDLLLTSSSGELWRMVRIGGQPLGFDECGIVAQIAGPLAAADISAYYISTFNFDHALVPEDGIGSVIEVLQRRQEGLAS
notes: Expressed in cells and pulled down from lysates; also called HA-CASTOR1; cytosolic arginine sensor for mTORC1 subunit 1; not shown: N-terminal Flag tag
